The data set can be described thus: Relative sweetness of raw materials and sweetener compositions (sugar = 1).
For `OC[C@H]1O[C@@](CO)(O[C@H]2O[C@H](CO)[C@@H](O)[C@H](O)[C@H]2O)[C@@H](O)[C@@H]1O` [Comparative Example 1, Sugar], the “Relative Sweetness per g of raw material” value is recorded as 1.
The same measure for `OC[C@@H](O)[C@@H](O)CO` [Comparative Example 2, Erythritol]: 0.63.
Regarding `O=C(CO)[C@H](O)[C@H](O)[C@H](O)CO` [Comparative Example 3, D-psicose], the “Relative Sweetness per g of raw material” value came to 0.56.
With `C=C1C[C@@]23CC[C@H]4[C@@](C)(CCC[C@@]4(C)C(=O)O[C@@H]4O[C@H](CO)[C@@H](O)[C@H](O)[C@H]4O)[C@@H]2CC[C@]1(O[C@@H]1O[C@H](CO)[C@@H](O)[C@H](O[C@@H]2O[C@H](CO)[C@@H](O)[C@H](O)[C@H]2O)[C@H]1O[C@@H]1O[C@H](CO)[C@@H](O)[C@H](O)[C@H]1O)C3` [Rebaudioside A], the “Relative Sweetness per g of raw material” value turned out to be 200.

The record behind these values is patent US20160324201A1, “SWEETENER COMPOSITION FOR ALLEVIATING DIABETES, CONTAINING SLOWLY DIGESTIBLE INGREDIENT” (CJ CHEILJEDANG CORPORATION, priority 2011, published 2016).
